According to PMC7204297:
Results are given in words; binding and its absence hold for the method and conditions named. Binding seen in cells or lysates may run through a third protein. Some binding calls cover weakened binding; strength is not graded here. For part of these data: Where a sequence is shown, tags or fusion partners need not be part of it.

Assays:
GFP-SH3BGRL (human) = biological target: T1, GFP-SH3BGRL (human) (UniProt O75368); test: co-IP; HEK293T co-transfected with GFP-SH3BGRL and YFP-HER2 for 48 h; lysis buffer 20 mM Tris pH 7.4, 150 mM NaCl, 1% NP-40, 20 mM EDTA; IP with SH3BGRL-specific antibody or control IgG overnight at 4 °C, protein A or G magnetic beads; western blot
T1 sequence: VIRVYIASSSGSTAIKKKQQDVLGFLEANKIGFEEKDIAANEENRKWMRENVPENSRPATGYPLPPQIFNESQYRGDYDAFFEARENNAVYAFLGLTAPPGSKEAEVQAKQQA

[1] = biological target: endogenous SH3BGRL (human (endogenous in MDA-MB-453)) (UniProt O75368); test: co-IP; endogenous proteins in MDA-MB-453 lysate; reciprocal IP with anti-SH3BGRL or anti-HER2 antibody, normal IgG as control; overnight at 4 °C, protein A or G magnetic beads; western blot
[2] = biological target: endogenous HER2 (human (endogenous in MDA-MB-453)) (UniProt P04626); test: as above

## YFP-HER2 (from UniProt P04626 23-1255) (receptor)
GFP-SH3BGRL (human)
  binding: binds

## endogenous HER2 (from UniProt P04626 23-1255) (receptor)
[1]
  binding: binds

## endogenous SH3BGRL (from UniProt O75368 1-114)
[2]
  binding: binds
